Experimental data as given in PMC9839322.
Construct, isoform or probe ends are uncertain for at least one entry.

Tested on: GmTOE4a:MBP
Assay: EMSA
Conditions: unlabeled probe at 400x used as specific competitor; EMSA/Gel-shift binding buffer (Biyuntian/Beyotime), 20 ul, room temperature, 25 min; salt and pH not …; recombinant protein; label: 5' 6-FAM

Sequence | binding result
GTGTGGTGGTTCACGAGGGCACAAGGGTTC (double strand) [probe-FT5a] | binds
TGTTTGAAAAAAACGAGGTGATCAGTTTTA (double strand) [probe-FT2a] | binds
